Data from patent US10723764B2, “Anti-microbial peptides and methods of use thereof” (priority 2011, dated 2020).
At least one peptide structure holds a part that was inferred or is arguable (an end, a ring closure or a residue). Some entries share one result that the patent states for a list of compounds. Where a SMILES comes first, the peptide text is derived from it. Where no end group is shown, it is not given here. [ ]: non-standard residue; d: D form. Bip = N[C@@H](Cc1ccc(-c2ccccc2)cc1)C(=O)O

Tests used:
[1] = test system: S. aureus USA300; assay: Transmission electron microscopy of peptide-treated S. aureus USA300; type: cell-based, Staphylococcus aureus; settings: S. aureus USA300 after peptide treatment
[2] = test system: CCL2 (MCP-1), CXCL10 (IP-10), IL-10, monocytes; assay: Host immune response in biofilm-infected mice (chemokine levels, monocyte recruitment); type: in vivo, C57BL/6 mice
[3] = test system: S. aureus USA300 LAC::lux; assay: Mouse model of catheter-associated S. aureus biofilm infection; type: in vivo, C57BL/6 mice
[4] = test system: Escherichia coli K12; settings: E. coli K12; for MICs (μM) EC: Table 5 screen
[5] = Peptide hydrophobicity by reverse-phase HPLC retention time; type: physicochemical; settings: Vydac C18, acetonitrile 5% to 95%, 1 ml/minute
[6] = test system: Pseudomonas aeruginosa PAO1; type: cell-based; settings: P. aeruginosa; Table 2
Experimental: (§1) The bacterial strains used in the study are Bacillus subtilis 168, methicillin-resistant Staphylococcus aureus USA300 LAC (Gram-positive), Escherichia coli K12, and Pseudomonas aeruginosa PAO1 (Gram negative). The antibacterial activities of the peptides were determined using the standard broth microdilution method (Wang et al. (2005) J. Biol. Chem., 280:5803-5811). In brief, the bacterial culture (90 μL) was treated with a series of peptide solutions (10 μL), each with two-fold dilution. After overnight incubation at 37° C., the microplate was read on a ChroMate® 4300 Microplate Reader at 630 nm (GMI, Ramsey, Minn.).
For the initial screen, antimicrobial activities of these peptides against S. aureus and E. coli were evaluated using the standard broth microdilution protocol (Wang, G. (2008) J. Biol. Chem., 283:32637-43). […] Subsequently, the in vitro activity of these six peptides was evaluated against Bacillus subtilis and Pseudomonas aeruginosa (Table 6). […]
The antibacterial activities of the peptides were determined using the standard broth microdilution method (Mishra et al. (2012) J. Am. Chem. Soc., 134:12426-12429; Wang et al. (2005) Biol. Chem., 280:5803-5811). […] After overnight incubation at 37° C., the microplate was read on a ChroMate® 4300 Microplate Reader at 630 nm (GMI, Ramsey, Minn.).

[7] = test system: Bacillus subtilis 168; type: cell-based; settings: B. subtilis; Table 2
Experimental: as §1
For the initial screen, antimicrobial activities of these peptides against S. aureus and E. coli were evaluated using the standard broth microdilution protocol (Wang, G. (2008) J. Biol. Chem., 283:32637-43). […] Subsequently, the in vitro activity of these six peptides was evaluated against Bacillus subtilis and Pseudomonas aeruginosa (Table 6). […] While maculatin 1.3 is active against two Gram-positive but not two Gram-negative bacterial strains, DASamP1 is species-specific since it active only against S. aureus. […]

[8] = test system: Gram-positive bacteria; assay: Activity against Gram-positive bacteria as recorded in the APD; set-up: key: Y, Yes; N, No; settings: DFTamP1, not in APD
[9] = test system: Gram-negative bacteria; assay: Activity against Gram-negative bacteria as recorded in the APD; set-up: key: Y, Yes; N, No; settings: DFTamP1, not in APD
[10] = test system: S. aureus USA300; assay: Membrane permeation by flow cytometry (TO-PRO3 dye); type: cell-based, Staphylococcus aureus; settings: 2×MIC, 10^8 colony-forming units
[11] = test system: S. aureus USA300; assay: Killing kinetics / real time killing of S. aureus USA300; type: cell-based, Staphylococcus aureus; settings: 0, 1, 2, or 8×MICs of DFTamP1; 37° C.
[12] = 200 μg into catheter at time 0, 200 μg sc at four sites at 24 and 48 hours, day 3 and 14
[13] = 200 μg into catheter at time 0, 800 μg at four sites at 24 and 48 hours, day 3 and day 14

CC(C)C[C@H](NC(=O)[C@H](CC(N)=O)NC(=O)[C@H](CCCNC(=N)N)NC(=O)[C@@H](CC(C)C)NC(=O)[C@H](Cc1ccc(-c2ccccc2)cc1)NC(=O)[C@H](CC(=O)O)NC(=O)[C@H](CCCCN)NC(=O)[C@@H](CC(C)C)NC(=O)[C@H](CCCNC(=N)N)NC(=O)[C@H](CCC(N)=O)NC(=O)[C@@H](NC(=O)[C@@H](CC(C)C)NC(=O)[C@H](CCCNC(=N)N)NC(=O)[C@H](CCCCN)NC(=O)[C@H](Cc1ccc(-c2ccccc2)cc1)NC(=O)CN)C(C)C)C(=O)N[C@H](C(N)=O)C(C)C [D128A, GX1KRLVQRLKDX2LRNLV-amide] (H-G[Bip]KR[dL]VQR[dL]KD[Bip][dL]RNLV-NH2)
bacterial surface damage seen by transmission electron microscopy [1]: caused bacterial lysis
monocyte recruitment ([2]; day 3): significantly heightened monocyte recruitment
CCL2 (MCP-1) expression ([2]; day 3 postinfection): significantly increased
CXCL10 (IP-10) expression ([2]; day 3 postinfection): significantly increased
IL-10 ([2]; day 3 postinfection): reduced
bacterial titers in surrounding tissues [3, 12]: significant decrease in bacterial titers
bacterial titers on the catheter surfaces [3, 12]: significant decrease in bacterial titers
bacterial growth on infected catheters and surrounding tissues ([3]; 4 injections (200 μg each) at 12, 24, and 48 hours, day 3 or 14 post-infection): entirely inhibited

GLLGLLGSVVSHVVPAIVGHF-NH2 [Maculatin 1.3, reference compound]
MICs (μM) EC [4]: > 100 µM

GIIPIISIIGKII-NH2 (C-terminus assumed) [DFTamP1-pi]
tRP (min), HPLC retention time of the peptide (hydrophobicity) [5]: 17.565 min

FFGKVLKLIRKIF-NH2 [DASamP1]
MICs (μM) EC [4]: > 100 µM
bacterial burdens associated with biofilm-infected catheters [3, 13]: significant decrease in bacterial burdens
bacterial burdens in surrounding tissues [3, 13]: significant decrease in bacterial burdens

GLLSLLSLLGKLL-NH2 (C-terminus assumed) [DFTamP1]
MIC (μM) PA [6]: > 120 µM
tRP (min), HPLC retention time of the peptide (hydrophobicity) [5]: 19.79 min
MIC (μM) BS [7]: > 120 µM
Activity G+ (activity against Gram-positive bacteria) [8]: Y
MIC (μM) EC ([4]; Table 2): > 120 µM
Activity G− (activity against Gram-negative bacteria) [9]: N
membrane permeation, fluorescence of DNA-binding dye [10]: steep fluorescence buildup in 30 minutes
real time bacterial killing of MRSA USA300 [11]: showed killing at its MIC and bacteria were lysed and inhibited at 8-fold the MIC
